A short description of data set [1]: Organic EL element, luminescent layer by vacuum deposition (ITO/TPD/compound/LiF/Al). To be noted: for turn-on voltage: EL element as in Example 8, compound as luminescent material; for luminance: at the turn-on voltage.
Data set [2] is described as follows: Organic EL element, luminescent layer applied by spin coating. To be noted: direct current voltage of 5 V, EL elements as in Example 23, Table 3.
The mark [3] stands for this setting: EL elements as in Example 8, Table 2.

SMILES strings stand for the structures.

In the case of `c1cnc2c([O][Al]([O]c3cccc4cccnc34)[O]c3cccc4cccnc34)cccc2c1` [Alq3, aluminum-8-hydroxyquinoline complex], in data set [1] (EL element as in Example 8), the “colour of emitted light” value is on record as “green”, the “drive current density at a luminance of 1,000 cd/m^2” value (“drive current density at a luminance” for short) turned out to be 50 A/cm^2 and the luminance is recorded as 18,000 cd/m^2. This compound came in with a turn-on voltage in data set [1] of 3.5 V.

On to `Cc1ccc(S(=O)(=O)[N-]c2ccccc2-c2nc3ccccc3o2)cc1.Cc1ccc(S(=O)(=O)[N-]c2ccccc2-c2nc3ccccc3o2)cc1.[Zn+2]` [Compound 2a, zinc bis-2-(2-(p-toluenesulfonamido)phenyl)benzoxazolate], for which, in data set [1] (EL element as in Example 8), the “colour of emitted light” value is listed as “blue”, the “drive current density at a luminance” value amounted to 60 A/cm^2 and the luminance is 6,500 cd/m^2. In data set [1], the turn-on voltage is 5.5 V.

With `Cc1ccc(S(=O)(=O)[N-]c2ccccc2-c2ccccn2)cc1.Cc1ccc(S(=O)(=O)[N-]c2ccccc2-c2ccccn2)cc1.[Zn+2]` [Compound 3, zinc bis-2-(2-(p-toluenesulfonamido)phenyl)pyridinate], in data set [1] (EL element as in Example 8), the “colour of emitted light” value was “blue”, the “drive current density at a luminance” value was determined as 65 A/cm^2 and the luminance was 6,800 cd/m^2. In data set [1], the turn-on voltage worked out at 5.5 V.

On to `CCCCCCCCS(=O)(=O)[N-]c1ccccc1-c1nc2ccccc2o1.CCCCCCCCS(=O)(=O)[N-]c1ccccc1-c1nc2ccccc2o1.[Zn+2]` [Compound 6a, zinc bis-2-(2-(n-octylsulfonamido)phenyl)benzoxazolate], for which, in data set [2], the luminance came to 120 cd/m^2. In data set [1] (setting [3]), the “Turn-on voltage for electroluminescence” value was 5.8 V and the luminance is 4,900 cd/m^2.

As to `CCCCCCCCS(=O)(=O)[N-]c1cccc2cccnc12.CCCCCCCCS(=O)(=O)[N-]c1cccc2cccnc12.[Zn+2]` [Compound B, zinc bis-8-(n-octylsulfonamido)quinolinate], in data set [2], the luminance worked out at 210 cd/m^2.

The record behind these values is patent publication US6790540B2, “Organic electroluminescent element material and organic electroluminescent element” (Nippon Steel Chemical Co., Ltd., priority 2000, dated 2004).
